Values from PubChem BioAssay AID1259254 (NCATS, 2017).

- Test: 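Gene knock-downs that lead to re-replication, shown by excess G2 DNA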 (primary screen)
- System: human HCT116 colorectal cancer cells
- Reagents: single siRNA against human genes
- Duration: 3 days
- Measurement: 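Imaged Hoechst DNA stain sorts each cell into a cycle phase by DNA amount; per plate, G2 fraction set to 0% for non-targeting and 100% for GMNN siRNA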
- Scale: G2 robust z-score: higher = more G2 cells, more excess DNA replication
- Rule for the call: 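Active siRNAs have a G2 robust z of 5 or more median absolute deviations over the median, which in these data means about 38% or higher of GMNN control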
The deposit covers about 59,000 reagents; shown is an unselected part. About 1,550 of all reagents (2.6%) were called active. 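G2 share is only a proxy for re-replication; each gene was hit by three separate siRNAs, and active genes were retested.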 The numbers tell different reagents against one gene apart. Not all columns of the deposit are shown. The record does not give: the amount of reagent.

G2 robust z-score, by gene knocked down and reagent
INKA2 (GeneID 55924): #1 0.666 inactive; #2 -0.879 inactive; #3 -0.242 inactive
NDUFAF4 (GeneID 29078): #1 0.134 inactive; #2 0.0675 inactive; #3 0.00912 inactive
ZNF137P (GeneID 7696): #1 -0.9 inactive; #2 0.309 inactive; #3 2.58 inactive
EPAS1 (GeneID 2034): #1 -0.938 inactive; #2 0.684 inactive; #3 0.0815 inactive
SMIM7 (GeneID 79086): #1 -0.378 inactive; #2 -0.286 inactive; #3 0.882 inactive
ZG16B (GeneID 124220): #1 0.794 inactive; #2 2.39 inactive; #3 -0.262 inactive
PTK6 (GeneID 5753): #1 5.49 active; #2 0.893 inactive; #3 -1.36 inactive
LOC441167 (retired record) (GeneID 441167): #1 0.591 inactive; #2 -0.286 inactive; #3 1.99 inactive
CSKMT (GeneID 751071): #1 -0.631 inactive; #2 -0.497 inactive; #3 -0.352 inactive

Active calls, among the entries above:
G2 robust z-score, by gene knocked down and reagent
PTK6 (GeneID 5753): #1 5.49 active

Additional entries:
G2 robust z-score, by gene knocked down and reagent
TEX264 (GeneID 51368): #1 0.42 inactive; #2 1.22 inactive; #3 -0.541 inactive
BAD (GeneID 572): #1 2.26 inactive; #2 -1.09 inactive; #3 -0.724 inactive
OR10J1 (GeneID 26476): #1 -0.52 inactive; #2 0.994 inactive; #3 2.12 inactive
GRIN1 (GeneID 2902): #1 -0.26 inactive; #2 -1.47 inactive; #3 3.05 inactive
WNT3 (GeneID 7473): #1 -1.01 inactive; #2 -0.903 inactive; #3 -0.693 inactive
HCCS (GeneID 3052): #1 -0.712 inactive; #2 -0.964 inactive; #3 -0.932 inactive
ZFP14 (GeneID 57677): #1 0.481 inactive; #2 -1.19 inactive; #3 0.188 inactive
PXN (GeneID 5829): #1 -0.976 inactive; #2 -0.0616 inactive; #3 -0.778 inactive
ZBBX (GeneID 79740): #1 1.16 inactive; #2 1.54 inactive; #3 2.36 inactive
CYP7A1 (GeneID 1581): #1 -0.204 inactive; #2 0.751 inactive; #3 0.931 inactive
WDR46 (GeneID 9277): #1 1.08 inactive; #2 1.95 inactive; #3 3.64 inactive
EMP3 (GeneID 2014): #1 -0.647 inactive; #2 2.23 inactive; #3 -0.128 inactive
RNMT (GeneID 8731): #1 -0.996 inactive; #2 -0.436 inactive; #3 0.604 inactive
KCNA6 (GeneID 3742): #1 1.42 inactive; #2 3.13 inactive; #3 -0.0491 inactive
